The list shows a part of the results. Small differences around the control level are noise.
test system: ppGalNAc-T3 sensor; assay: T3 sensor activation Q score (MG/GFP ratio z-score vs DMSO controls) (SD units); higher = more sensor activation (inhibition of ppGalNAc-T3 glycosylation); conditions: HEK293 sensor cells; 10 µM; 6 h
Description: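 Cells were treated with compound at 10 uM for 6 h, then MG/GFP ratio was read by flow cytometry (10,000 cells per well, duplicate wells). Q = (R - R_neg)/SD_neg relative to DMSO vehicle controls; the signal rises when the glycosyltransferase is inhibited.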

| SMILES | T3 sensor activation Q score |
| --- | --- |
| Cc1ccc(C(=O)NCc2ccc([N+](=O)[O-])cc2)cc1 | 0.02 |
| CCN1CCN(Cc2coc3ccccc3c2=O)CC1 | -0.05 |
| NC(=O)C1CCCN(Cc2ccc(Cl)cc2)C1 (stereo not given) | -0.12 |
| Cc1ccc(S(=O)(=O)Nc2cccc3ccc(-n4nc(C)cc4C)nc23)cc1 | -0.32 |
| CCCCOc1ccc(-c2ncc([N+](=O)[O-])cn2)cc1 | 0.095 |
| CN1CCCN(Cc2ccc(F)cc2)CC1 | 0.115 |
| Cc1cccc(C(=O)N2CCOCC2)c1 | 0.31 |
| O=C1CCS(=O)(=O)c2ccccc21 | -0.57 |
| Nc1nc(N)nc(-c2ccc(I)cc2)n1 | -0.3 |
| CCN(CC)CCN(C)Cc1ccc([N+](=O)[O-])cc1 | 0.15 |
| CCN(CC)S(=O)(=O)c1cc(C(=O)O)ccc1Br | 0.08 |
| NC(=O)NC(c1ccccc1)c1ccc(Br)cc1 (stereo not given) | 0.905 |
| CCN(CC)CCN(C)Cc1cccc(F)c1 | 0.755 |
| Cc1occc1C(=O)NC(C)c1ccccc1 (stereo not given) | -0.605 |
| c1ccc2c(c1)-c1ccccc1C2N1CCNCC1 | -0.685 |
| CC(=O)Nc1cc2c(cc1C(=O)c1ccccc1Cl)OCCO2 | 0.5 |
| NNC(=O)c1n[nH]c2c1CCCC2 | 0.175 |
| Cc1onc(-c2ccccc2Cl)c1C(=O)N1CC(C)OC(C)C1 (stereo not given) | 0.36 |
| CCCN1CCC(N(C)CCN(C)C)CC1 | 0.415 |
| C=CCN1C(=O)C(=O)C(=C(O)c2ccccc2)C1c1ccccc1 (stereo not given) | 0.485 |

3 records picked at random from those above:

| SMILES | T3 sensor activation Q score |
| --- | --- |
| Cc1cccc(C(=O)N2CCOCC2)c1 | 0.31 |
| CCCN1CCC(N(C)CCN(C)C)CC1 | 0.415 |
| O=C1CCS(=O)(=O)c2ccccc21 | -0.57 |

Next part

| SMILES | T3 sensor activation Q score |
| --- | --- |
| CN1C(=O)CC(N2CCN(c3ccc(Cl)cc3)CC2)C1=O (stereo not given) | -0.11 |
| Cc1ccc(OCC(=O)N2CCN(c3ccccc3)CC2)cc1 | 0.75 |
| O=C(c1cccc(F)c1)N1CCOCC1 | 0.18 |
| CCCCN(C)C1CCN(Cc2ccccc2)CC1 | 0.75 |
| CCOc1ccccc1C(=O)NCCc1ccc(F)cc1 | -0.26 |
| CC1CCCCN1C(=O)c1ccc(C(=O)N2CCCCC2C)cc1 (stereo not given) | -0.38 |
| COc1cccc(OC)c1C(=O)Nc1ccccc1C | 0.355 |
| c1ccc(CN2CCN(Cc3cccnc3)CC2)cc1 | -0.37 |
| CCSc1cc(C)nc2ncnn12 | 0.39 |
| O=S(=O)(NC1CCCCC1)c1cccc2nsnc12 | 1.4 |
| COc1ccc(CC(=O)Nc2cccc(F)c2)cc1 | -0.29 |
| COc1ccc(CNc2ccc3c(c2)CCC3)cc1 | 0.21 |
| Cc1nnc2c(N3CCOCC3)nc3ccccc3n12 | -0.59 |
| Cc1ccccc1OCCCN1CCCCC1 | 0.32 |
| Cn1c(S(=O)(=O)Cc2ccc(Cl)cc2)nc2ccccc21 | -0.23 |
| CCN1CCN(C/C(C)=C/c2ccccc2)CC1 | 0.3 |
| COc1ccc(NC2=CC(=O)CCC2)c(OC)c1 | -0.765 |
| COc1cc(C)c(CN2CCC(O)CC2)cc1C | 0.185 |
| Cc1ccc(CN2CCCN(C)CC2)s1 | -0.305 |
| Cc1ccc(S(=O)(=O)Nc2ccc(Cl)cc2)cc1 | -0.73 |

From the supplement of paper PMC5407854, “Inhibitor of ppGalNAc-T3-mediated O-glycosylation blocks cancer cell invasiveness and lowers FGF23 levels” (eLife, 2017)
